# Some of the results follow. The data scatter; read single values as rough.
# Sequences of proteins named here, by UniProt entry; tags and fusion partners are left off. A change or cut given only in a name is not applied to a line headed by its entry.
# UniProt Q99797: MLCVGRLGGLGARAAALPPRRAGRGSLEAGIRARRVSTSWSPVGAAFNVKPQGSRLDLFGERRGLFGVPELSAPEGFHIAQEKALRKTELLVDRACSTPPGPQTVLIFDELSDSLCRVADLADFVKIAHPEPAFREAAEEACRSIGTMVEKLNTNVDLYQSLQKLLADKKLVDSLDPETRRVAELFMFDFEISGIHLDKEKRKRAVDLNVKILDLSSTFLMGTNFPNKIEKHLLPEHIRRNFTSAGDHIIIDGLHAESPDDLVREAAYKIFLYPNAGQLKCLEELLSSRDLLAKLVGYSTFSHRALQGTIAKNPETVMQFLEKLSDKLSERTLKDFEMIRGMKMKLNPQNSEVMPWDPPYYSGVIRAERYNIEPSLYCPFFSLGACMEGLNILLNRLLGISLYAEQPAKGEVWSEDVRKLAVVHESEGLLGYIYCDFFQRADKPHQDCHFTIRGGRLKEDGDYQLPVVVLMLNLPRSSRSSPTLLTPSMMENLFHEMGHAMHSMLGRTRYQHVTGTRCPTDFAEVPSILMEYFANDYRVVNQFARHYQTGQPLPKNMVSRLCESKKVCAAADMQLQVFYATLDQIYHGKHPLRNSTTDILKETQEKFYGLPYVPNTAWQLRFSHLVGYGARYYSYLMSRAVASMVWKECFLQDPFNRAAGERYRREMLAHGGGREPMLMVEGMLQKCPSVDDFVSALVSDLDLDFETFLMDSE
# UniProt Q14676: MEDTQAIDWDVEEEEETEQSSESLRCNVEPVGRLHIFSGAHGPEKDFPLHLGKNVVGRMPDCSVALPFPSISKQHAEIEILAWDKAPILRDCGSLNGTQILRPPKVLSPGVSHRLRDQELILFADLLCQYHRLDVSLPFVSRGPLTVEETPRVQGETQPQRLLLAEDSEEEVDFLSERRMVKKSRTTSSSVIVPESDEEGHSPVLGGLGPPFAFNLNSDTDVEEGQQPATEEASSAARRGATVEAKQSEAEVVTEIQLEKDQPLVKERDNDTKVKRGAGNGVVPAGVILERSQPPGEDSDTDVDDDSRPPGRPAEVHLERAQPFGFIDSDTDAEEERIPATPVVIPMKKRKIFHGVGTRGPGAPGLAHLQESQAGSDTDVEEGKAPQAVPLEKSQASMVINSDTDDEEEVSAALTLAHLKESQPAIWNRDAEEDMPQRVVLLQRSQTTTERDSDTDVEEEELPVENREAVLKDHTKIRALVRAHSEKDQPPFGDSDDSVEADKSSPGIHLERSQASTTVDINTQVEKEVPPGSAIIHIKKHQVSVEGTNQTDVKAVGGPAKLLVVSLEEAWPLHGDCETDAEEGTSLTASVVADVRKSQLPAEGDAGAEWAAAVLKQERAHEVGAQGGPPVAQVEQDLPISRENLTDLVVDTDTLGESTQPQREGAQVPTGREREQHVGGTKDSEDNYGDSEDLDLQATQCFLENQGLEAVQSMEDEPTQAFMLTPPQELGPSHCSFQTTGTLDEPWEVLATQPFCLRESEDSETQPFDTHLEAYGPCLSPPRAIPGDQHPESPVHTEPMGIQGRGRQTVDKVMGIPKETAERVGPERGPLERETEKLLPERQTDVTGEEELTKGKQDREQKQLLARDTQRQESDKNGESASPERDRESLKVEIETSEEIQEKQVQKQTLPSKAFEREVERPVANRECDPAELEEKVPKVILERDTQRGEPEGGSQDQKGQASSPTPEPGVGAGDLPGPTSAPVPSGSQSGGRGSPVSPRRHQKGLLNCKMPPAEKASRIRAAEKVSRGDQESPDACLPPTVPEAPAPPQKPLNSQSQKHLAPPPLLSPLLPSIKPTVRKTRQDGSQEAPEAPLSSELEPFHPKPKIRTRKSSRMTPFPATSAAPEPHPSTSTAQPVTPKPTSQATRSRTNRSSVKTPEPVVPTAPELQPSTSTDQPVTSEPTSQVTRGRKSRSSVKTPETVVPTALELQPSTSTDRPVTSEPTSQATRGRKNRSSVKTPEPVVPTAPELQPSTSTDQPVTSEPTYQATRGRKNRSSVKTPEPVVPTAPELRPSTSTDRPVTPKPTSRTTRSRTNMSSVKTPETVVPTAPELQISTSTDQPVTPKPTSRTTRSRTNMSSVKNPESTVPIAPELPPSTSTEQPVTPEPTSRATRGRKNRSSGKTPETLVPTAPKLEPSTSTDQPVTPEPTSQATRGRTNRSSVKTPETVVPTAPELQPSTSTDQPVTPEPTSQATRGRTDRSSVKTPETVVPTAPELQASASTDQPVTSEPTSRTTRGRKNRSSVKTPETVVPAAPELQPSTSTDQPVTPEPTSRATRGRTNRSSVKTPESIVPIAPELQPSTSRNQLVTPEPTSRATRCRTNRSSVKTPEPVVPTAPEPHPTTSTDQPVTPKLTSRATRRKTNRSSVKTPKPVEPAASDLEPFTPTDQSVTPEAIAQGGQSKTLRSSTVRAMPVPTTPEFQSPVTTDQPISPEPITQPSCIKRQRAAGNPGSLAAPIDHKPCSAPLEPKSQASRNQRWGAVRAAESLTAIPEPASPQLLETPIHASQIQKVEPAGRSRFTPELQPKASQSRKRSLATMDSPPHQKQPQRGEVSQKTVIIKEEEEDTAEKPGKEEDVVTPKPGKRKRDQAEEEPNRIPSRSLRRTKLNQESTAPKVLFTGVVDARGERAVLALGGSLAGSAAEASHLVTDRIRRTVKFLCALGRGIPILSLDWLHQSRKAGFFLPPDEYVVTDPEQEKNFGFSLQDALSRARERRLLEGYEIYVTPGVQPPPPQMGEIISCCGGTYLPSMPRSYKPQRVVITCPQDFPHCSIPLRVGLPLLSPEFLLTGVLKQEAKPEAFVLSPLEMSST
# UniProt P46013: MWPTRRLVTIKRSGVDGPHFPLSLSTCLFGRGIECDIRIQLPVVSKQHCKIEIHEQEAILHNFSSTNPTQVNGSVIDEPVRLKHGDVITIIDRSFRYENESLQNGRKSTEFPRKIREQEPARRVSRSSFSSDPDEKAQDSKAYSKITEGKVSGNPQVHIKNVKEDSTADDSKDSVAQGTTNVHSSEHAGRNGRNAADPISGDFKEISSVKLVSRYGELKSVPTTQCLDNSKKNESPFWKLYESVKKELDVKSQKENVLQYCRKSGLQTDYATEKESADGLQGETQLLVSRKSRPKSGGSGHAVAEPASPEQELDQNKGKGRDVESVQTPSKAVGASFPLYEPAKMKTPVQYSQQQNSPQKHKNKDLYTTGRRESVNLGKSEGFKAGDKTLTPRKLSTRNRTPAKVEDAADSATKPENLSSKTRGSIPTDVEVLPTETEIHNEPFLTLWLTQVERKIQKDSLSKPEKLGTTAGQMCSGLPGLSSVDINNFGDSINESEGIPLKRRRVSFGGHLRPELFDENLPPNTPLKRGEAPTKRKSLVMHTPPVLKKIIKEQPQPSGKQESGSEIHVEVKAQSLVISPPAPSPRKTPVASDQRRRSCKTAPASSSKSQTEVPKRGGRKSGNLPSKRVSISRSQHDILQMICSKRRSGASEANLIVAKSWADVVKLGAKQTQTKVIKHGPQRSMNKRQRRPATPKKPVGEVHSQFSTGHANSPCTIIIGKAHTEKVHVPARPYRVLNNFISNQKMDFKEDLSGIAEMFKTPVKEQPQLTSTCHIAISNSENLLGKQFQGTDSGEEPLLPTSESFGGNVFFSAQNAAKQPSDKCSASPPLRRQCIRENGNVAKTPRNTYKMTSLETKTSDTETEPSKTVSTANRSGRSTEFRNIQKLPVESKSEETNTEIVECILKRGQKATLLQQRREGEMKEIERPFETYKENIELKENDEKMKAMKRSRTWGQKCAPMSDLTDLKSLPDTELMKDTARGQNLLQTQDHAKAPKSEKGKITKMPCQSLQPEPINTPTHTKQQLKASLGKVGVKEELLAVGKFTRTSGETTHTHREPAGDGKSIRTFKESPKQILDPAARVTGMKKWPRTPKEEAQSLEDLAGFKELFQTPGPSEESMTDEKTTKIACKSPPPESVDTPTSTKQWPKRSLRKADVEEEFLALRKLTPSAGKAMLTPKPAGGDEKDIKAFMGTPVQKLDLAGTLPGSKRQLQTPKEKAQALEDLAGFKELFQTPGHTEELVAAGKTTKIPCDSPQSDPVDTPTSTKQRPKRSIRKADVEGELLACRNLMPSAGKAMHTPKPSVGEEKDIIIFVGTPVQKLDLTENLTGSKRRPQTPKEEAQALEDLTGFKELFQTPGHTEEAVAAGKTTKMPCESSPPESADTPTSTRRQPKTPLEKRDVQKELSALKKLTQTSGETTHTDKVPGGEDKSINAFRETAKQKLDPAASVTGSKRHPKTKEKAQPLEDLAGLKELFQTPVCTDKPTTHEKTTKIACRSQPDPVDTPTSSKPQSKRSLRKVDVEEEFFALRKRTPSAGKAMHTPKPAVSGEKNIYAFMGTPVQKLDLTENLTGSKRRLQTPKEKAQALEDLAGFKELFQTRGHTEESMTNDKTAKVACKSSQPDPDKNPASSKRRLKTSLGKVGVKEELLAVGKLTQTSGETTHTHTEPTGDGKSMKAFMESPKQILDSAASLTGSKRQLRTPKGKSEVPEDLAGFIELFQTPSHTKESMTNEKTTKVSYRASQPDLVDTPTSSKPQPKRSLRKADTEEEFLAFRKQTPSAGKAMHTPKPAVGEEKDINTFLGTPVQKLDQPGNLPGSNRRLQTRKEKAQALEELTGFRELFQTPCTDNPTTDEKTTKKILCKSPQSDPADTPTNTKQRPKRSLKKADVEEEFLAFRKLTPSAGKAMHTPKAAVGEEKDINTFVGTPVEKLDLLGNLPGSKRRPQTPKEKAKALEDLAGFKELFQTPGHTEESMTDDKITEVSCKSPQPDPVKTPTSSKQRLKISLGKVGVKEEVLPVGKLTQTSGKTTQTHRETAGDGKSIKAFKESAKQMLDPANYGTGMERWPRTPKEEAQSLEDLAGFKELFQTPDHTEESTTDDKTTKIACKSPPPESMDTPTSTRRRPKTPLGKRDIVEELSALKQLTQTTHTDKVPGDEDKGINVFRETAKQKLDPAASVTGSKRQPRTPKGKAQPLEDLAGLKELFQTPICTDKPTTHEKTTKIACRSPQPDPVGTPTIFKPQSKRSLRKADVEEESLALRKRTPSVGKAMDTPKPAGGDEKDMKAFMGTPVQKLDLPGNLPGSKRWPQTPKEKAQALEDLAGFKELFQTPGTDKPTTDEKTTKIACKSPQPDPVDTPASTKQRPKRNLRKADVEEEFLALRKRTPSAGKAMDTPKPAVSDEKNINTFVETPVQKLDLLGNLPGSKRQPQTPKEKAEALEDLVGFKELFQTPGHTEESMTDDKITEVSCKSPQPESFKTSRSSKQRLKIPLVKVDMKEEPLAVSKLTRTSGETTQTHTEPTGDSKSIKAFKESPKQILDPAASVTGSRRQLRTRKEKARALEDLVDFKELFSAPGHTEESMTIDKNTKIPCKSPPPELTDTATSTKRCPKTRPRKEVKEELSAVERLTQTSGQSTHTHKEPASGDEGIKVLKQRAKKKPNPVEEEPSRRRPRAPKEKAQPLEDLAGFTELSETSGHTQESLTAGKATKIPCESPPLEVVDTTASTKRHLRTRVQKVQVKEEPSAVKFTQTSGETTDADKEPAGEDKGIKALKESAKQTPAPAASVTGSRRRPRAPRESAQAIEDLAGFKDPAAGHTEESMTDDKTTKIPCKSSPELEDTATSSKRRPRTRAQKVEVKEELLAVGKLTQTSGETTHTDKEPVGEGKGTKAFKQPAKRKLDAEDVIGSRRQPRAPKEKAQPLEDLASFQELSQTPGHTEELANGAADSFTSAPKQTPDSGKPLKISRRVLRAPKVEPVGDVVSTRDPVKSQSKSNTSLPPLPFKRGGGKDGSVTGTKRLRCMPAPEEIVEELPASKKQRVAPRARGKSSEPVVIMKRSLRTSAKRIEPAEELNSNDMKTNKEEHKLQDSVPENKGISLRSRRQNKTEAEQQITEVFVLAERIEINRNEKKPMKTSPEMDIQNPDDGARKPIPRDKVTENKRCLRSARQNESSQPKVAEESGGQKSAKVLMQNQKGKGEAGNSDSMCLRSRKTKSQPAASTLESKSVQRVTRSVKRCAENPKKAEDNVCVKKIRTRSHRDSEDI
# UniProt Q6NTE8: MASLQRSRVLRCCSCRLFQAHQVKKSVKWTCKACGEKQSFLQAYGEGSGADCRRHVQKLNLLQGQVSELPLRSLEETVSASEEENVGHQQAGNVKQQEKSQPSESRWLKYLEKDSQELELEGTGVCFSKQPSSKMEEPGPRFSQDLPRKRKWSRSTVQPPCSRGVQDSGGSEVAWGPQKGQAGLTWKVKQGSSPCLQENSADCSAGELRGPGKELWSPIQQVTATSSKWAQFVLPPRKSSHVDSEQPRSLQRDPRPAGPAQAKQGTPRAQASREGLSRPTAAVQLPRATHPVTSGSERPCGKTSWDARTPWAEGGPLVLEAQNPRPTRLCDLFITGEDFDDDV
# Key:
# [1] = compound: ClCC(=O)N[C@@H]1CCCc2ccccc12; assay: log2 mean competition ratio of IA-DTB cysteine labelling (DMSO/compound) (log2 ratio); higher = stronger cysteine engagement by compound; settings: treatment time: 4 h, cell line lysate: HEK293T
# Description: (§1)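 IA-DTB competitive cysteine chemoproteomics in HEK293T RIPA lysate. Lysates were treated with compound 29 or 30 at 50 or 200 µM for 4 h, then IA-DTB (500 µM, 1 h), trypsin-digested, NeutrAvidin-enriched and analysed by diaPASEF. Competition ratio = intensity DMSO / intensity compound (n=4 treated, n=64 DMSO); binding: mean log2 CR ≥ 1 and p ≤ 0.05 plus QC filters. Target is the cysteine site.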
# [2] = compound: ClCC(=O)N[C@H]1CCCc2ccccc12; assay: as above; settings: treatment time: 4 h, cell line lysate: HEK293T
# Description: as §1
Target,log2 mean competition ratio ([1]; 50 µM),log2 mean competition ratio ([1]; 200 µM),log2 mean competition ratio ([2]; 50 µM),log2 mean competition ratio ([2]; 200 µM)
MCUB C147 (UniProt Q9NWR8),0.05,-0.0741,0.333,0.0527
MIPEP C142 (UniProt Q99797),-0.389,0.137,-0.364,0.0781
MDC1 C26 (UniProt Q14676),-0.0894,-0.0727,0.106,0.00475
MON2 C1453 (UniProt Q7Z3U7),0.245,0.0339,0.00706,0.163
MKI67 C261 (UniProt P46013),0.409,-0.0888,0.811,0.0954
MRNIP C161 (UniProt Q6NTE8),0.0477,0.0843,0.278,0.0915
